Source: article PMC9260213
Numbering of substitutions follows the chain as printed. Names and notes keep the numbering of the source. Results are given in words; binding and its absence hold for the method and conditions named. Some binding calls cover weakened binding; strength is not graded here. For some assays here: Tags and fused reporters may be left off the sequences shown.

The chains behind the UniProt entries cited, without tags or fusion partners. Where a name states a change or a piece, a line headed by the entry shows the natural chain unless it says otherwise.
UniProt Q91WG4: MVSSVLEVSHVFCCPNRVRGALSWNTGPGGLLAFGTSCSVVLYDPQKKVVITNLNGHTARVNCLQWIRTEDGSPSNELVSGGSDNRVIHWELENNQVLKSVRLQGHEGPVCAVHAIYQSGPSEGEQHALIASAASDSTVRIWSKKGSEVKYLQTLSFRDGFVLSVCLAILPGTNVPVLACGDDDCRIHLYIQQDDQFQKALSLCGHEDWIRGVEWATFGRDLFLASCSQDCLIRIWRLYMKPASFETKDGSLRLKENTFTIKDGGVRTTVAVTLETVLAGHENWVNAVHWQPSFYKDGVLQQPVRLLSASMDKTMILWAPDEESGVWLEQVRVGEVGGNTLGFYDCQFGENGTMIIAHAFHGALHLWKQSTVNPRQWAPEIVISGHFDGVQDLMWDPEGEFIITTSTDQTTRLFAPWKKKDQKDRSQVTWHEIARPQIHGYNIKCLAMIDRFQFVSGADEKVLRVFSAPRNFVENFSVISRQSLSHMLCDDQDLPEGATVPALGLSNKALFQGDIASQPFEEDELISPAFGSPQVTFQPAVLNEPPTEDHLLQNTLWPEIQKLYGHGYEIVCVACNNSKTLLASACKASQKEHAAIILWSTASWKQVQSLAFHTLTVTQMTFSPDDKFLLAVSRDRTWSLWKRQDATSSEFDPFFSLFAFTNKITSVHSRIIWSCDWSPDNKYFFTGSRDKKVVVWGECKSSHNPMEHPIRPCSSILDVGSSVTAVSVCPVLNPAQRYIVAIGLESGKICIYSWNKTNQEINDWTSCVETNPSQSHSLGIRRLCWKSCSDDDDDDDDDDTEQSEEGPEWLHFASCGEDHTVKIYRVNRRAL

T1: murine Elp6 (subunit of mElp456) (Mus musculus) (UniProt Q8BK75)
T1 sequence: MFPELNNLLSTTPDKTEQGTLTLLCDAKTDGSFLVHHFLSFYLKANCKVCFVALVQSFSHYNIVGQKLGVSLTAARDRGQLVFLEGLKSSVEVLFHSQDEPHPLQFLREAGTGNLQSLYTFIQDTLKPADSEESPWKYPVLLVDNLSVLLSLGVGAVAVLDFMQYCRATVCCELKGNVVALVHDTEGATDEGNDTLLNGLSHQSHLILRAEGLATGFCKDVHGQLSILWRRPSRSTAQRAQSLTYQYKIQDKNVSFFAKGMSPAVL

T2: murine Elp3 (subunit of mElp123), Twin-Strep-tagged (murine) (UniProt Q9CZX0)
T2 sequence: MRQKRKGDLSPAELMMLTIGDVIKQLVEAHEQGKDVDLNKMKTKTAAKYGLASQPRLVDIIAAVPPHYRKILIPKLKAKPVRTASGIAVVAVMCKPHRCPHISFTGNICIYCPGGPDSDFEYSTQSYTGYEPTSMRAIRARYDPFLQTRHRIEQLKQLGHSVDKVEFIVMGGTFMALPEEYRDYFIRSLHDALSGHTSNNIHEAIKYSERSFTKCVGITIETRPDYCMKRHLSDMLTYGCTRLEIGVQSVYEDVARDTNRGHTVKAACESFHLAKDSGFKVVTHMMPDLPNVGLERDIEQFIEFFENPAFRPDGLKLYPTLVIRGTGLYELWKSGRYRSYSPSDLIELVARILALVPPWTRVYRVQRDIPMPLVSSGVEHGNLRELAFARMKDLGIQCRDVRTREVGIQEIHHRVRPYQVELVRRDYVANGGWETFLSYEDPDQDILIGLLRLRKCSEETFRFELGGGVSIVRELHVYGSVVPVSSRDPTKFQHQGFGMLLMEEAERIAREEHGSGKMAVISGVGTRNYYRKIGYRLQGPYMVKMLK

T3: human Elp6 (subunit of hElp456) (Homo sapiens) (UniProt Q0PNE2)
T3 sequence: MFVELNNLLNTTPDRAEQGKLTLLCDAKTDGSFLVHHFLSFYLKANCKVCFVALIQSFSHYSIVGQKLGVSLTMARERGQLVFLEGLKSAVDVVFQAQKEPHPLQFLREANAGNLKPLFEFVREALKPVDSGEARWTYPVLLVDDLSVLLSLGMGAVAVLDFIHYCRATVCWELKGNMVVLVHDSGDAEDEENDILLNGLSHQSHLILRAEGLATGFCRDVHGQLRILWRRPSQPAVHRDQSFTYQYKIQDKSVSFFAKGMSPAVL

B1: murine Elp4 Y90C (protein, UniProt Q9ER73 1-422)
chain: MAAADTCGAGTLSSRSVASEAGQGGTSSFQRKGKASGGPGGGPRLLSIAGTRPSVRNGQLLVSTGLPALDQLLGGGLAVGTLLLIEEDKCNIYSPLLFKYFMAEGIINGHTLLVASAKENPAKILQELPAPLLDDNSKKELEDVHSAKTPEPNVNMKIAWRYQLQPKMEVGPVSSSRFGHYYDLSKRIPWELLQSSKWHGFFLPEHISPDLKGESCFLSCGYMRLLEFIQKSVYAEGFDGANPQKKQKNILRIGIQNLGSPLWGDDICCKENCDNNHRLTKFLYILRGLLRSSLSACIITMPAHLVQNKSITTRVRNLSDTVVGLESFIGSERETNPLYKDYHGLIHIRKIPRLNNLTCDESDVKDLAFKLKRKLFTIERLHLPPDLSDTVGRSSKQDLAASTARLGAGCSSMAEGKKHLDF
B2: murine Elp4 L294I (protein, UniProt Q9ER73 1-422)
chain: B1 chain with C90Y, L294I
B3: murine Elp1 (subunit of mElp123) (protein, UniProt Q7TT37 1-1333)
chain: MRNLKLHRTLEFRDIQAPGKPQCFCLRAEQGTVLIGSERGLTEVDPVRREVKTEISLVAEGFLPEDGSGCIVGIQDLLDQESVCVATASGDVIVCNLSTQQLECVGSVASGISVMSWSPDQELLLLATAQQTLIMMTKDFEVIAEEQIHQDDFGEGKFVTVGWGSKQTQFHGSEGRPTAFPVQLPENALPWDDRRPHITWRGDGQYFAVSVVCRQTEARKIRVWNREFALQSTSESVPGLGPALAWKPSGSLIASTQDKPNQQDVVFFEKNGLLHGHFTLPFLKDEVKVNDLLWNADSSVLAIWLEDLPKEDSSTLKSYVQLWTVGNYHWYLKQSLPFSTTGKNQIVSLLWDPVTPCRLHVLCTGWRYLCCDWHWTTDRSSGNSANDLANVAVIDGNRVLVTVFRQTVVPPPMCTYRLLIPHPVNQVIFSAHLGNDLAVLDASNQISVYKCGDKPNMDSTVKLGAVGGNGFKVPLTTPHLEKRYSIQFGNNEEEEEEEVNALQLSFLTWVEDDTFLAISYSHSSSQSIIHHLTVTHSEVDEEQGQLDVSSSVTVDGVVIGLCCCSKTKSLAVQLADGQVLKYLWESPSLAVEPWKNSEGIPVRFVHPCTQMEVATIGGEECVLGLTDRCRFFINDTEVASNITSFAVCDDFLLVTTHSHTCQVFSLSGASLKMLQAALSGSHEASGEILRKVERGSRIVTVVPQDTKLILQMPRGNLEVVHHRALVLAQIRKWLDKLMFKEAFECMRKLRINLNLIHDHNPKVFLENVETFVKQIDSVNHINLFFTELREEDVTKTMYPPPITKSVQVSTHPDGKKLDLICDAMRAAMEAINPRKFCLSILTSHVKKTTPELEIVLQKVQELQGNLPFDPESVSVEEALKYLLLLVDVNELFNHSLGTYDFNLVLMVAEKSQKDPKEYLPFLNTLKKMETNYQRFTIDKYLKRYEKALGHLSKCGPEYFTECLNLIKDKNLYKEALKLYRPDSPQYQAVSMAYGEHLMQEHLYEPAGLVFARCGAQEKALEAFLACGSWQQALCVAAQLQMSKDKVAGLARTLAGKLVEQRKHSEAATVLEQYAQDYEEAVLLLLEGSAWEEALRLVYKYDRVDIIETSVKPSILEAQKNYMDFLDSETATFIRHKNRLQVVRALRRQAPQVHVDHEVAHGPESDLFSETSSIMSGSEMSGRYSHSNSRISARSSKNRRKAERKKHSLKEGSPLEGLALLEALSEVVQSVEKLKDEVRAILKVLFLFEFEEQAKELQRAFESTLQLMERAVPEIWTPAGQQSSTTPVLGPSSTANSITASYQQQKTCVPALDAGVYMPPKMDPRSQWKLSLLE
B4: murine Elp456 subcomplex, wild type (complex, UniProt Q9ER73 1-422; Q99L85 1-300; Q8BK75 1-266)
chain 1: B1 chain with C90Y
chain 2: MLDSLLAIGGLVLLRDSVEWEGRSLLKALIKKSALRGEQVHVLGCEVSEEEFREGFDSDVNSRLVYHDLFRDPLNWSKPGEAVPEGPLKALRSMCKRTDHGSVTIALDSLSWLLCHIPCVTLCQALHALSQQNGDPGDNSLVEQVRVLGLLHEELHGPGSMGALNTLAHTEVTLSGKVDQTSASILCRRPQQRATYQTWWFSVLPDFSLTLHEGLPLRSELHPDHHTTQVDPTAHLTFNLHLSKKEREARDSLTLPFQFSSEKQKALLHPVPSRTTGHIFYEPDAFDDVDPEDPDDDLDI
chain 3: T1 sequence
B5: human Elp5 (subunit of hElp456) (protein, UniProt Q8TE02 1-300)
chain: MLDSLLALGGLVLLRDSVEWEGRSLLKALVKKSALCGEQVHILGCEVSEEEFREGFDSDINNRLVYHDFFRDPLNWSKTEEAFPGGPLGALRAMCKRTDPVPVTIALDSLSWLLLRLPCTTLCQVLHAVSHQDSCPGDSSSVGKVSVLGLLHEELHGPGPVGALSSLAQTEVTLGGTMGQASAHILCRRPRQRPTDQTQWFSILPDFSLDLQEGPSVESQPYSDPHIPPVDPTTHLTFNLHLSKKEREARDSLILPFQFSSEKQQALLRPRPGQATSHIFYEPDAYDDLDQEDPDDDLDI
B6: murine Elp456 subcomplex with Elp4 Y90C (complex, UniProt Q9ER73 1-422; Q99L85 1-300; Q8BK75 1-266)
chain 1: B1 chain
chain 2: B4 chain 2
chain 3: T1 sequence
B7: murine Elp456 subcomplex with Elp4 L294I (complex, UniProt Q9ER73 1-422; Q99L85 1-300; Q8BK75 1-266)
chain 1: B1 chain with C90Y, L294I
chain 2: B4 chain 2
chain 3: T1 sequence
B8: murine Elp456 subcomplex with Elp6 L118W (complex, UniProt Q9ER73 1-422; Q99L85 1-300; Q8BK75 1-266)
chain 1: B1 chain with C90Y
chain 2: B4 chain 2
chain 3: T1 sequence with L118W
B9: murine Elp456 subcomplex with Elp6 L126Q (complex, UniProt Q9ER73 1-422; Q99L85 1-300; Q8BK75 1-266)
chain 1: B1 chain with C90Y
chain 2: B4 chain 2
chain 3: T1 sequence with L126Q

How the values were obtained:
[1] = biological target: T1, murine Elp6 (subunit of mElp456) (Mus musculus); assay: co-purification; mElp456 variants co-expressed in Hi-5 cells, captured from lysate on IgG agarose via Protein A on Elp6, TEV cleavage, gel filtration
[2] = biological target: T2, murine Elp3 (subunit of mElp123), Twin-Strep-tagged (murine); assay: pull-down; mElp123 co-expressed in Sf9-1 and purified as one complex via Twin-Strep on Elp3, held on Dynabeads MyOne Streptavidin C1 via Elp3, eluted with d-desthiobiotin; SDS-PAGE, Coomassie; both purified
[3] = biological target: T4, murine Elp123 subcomplex, wild type (murine) (UniProt Q7TT37+Q91WG4+Q9CZX0); assay: SEC; mElp123WT incubated with Elp456 variants 30 min at 25°C in 2:1 ratio, then Superose 6 Increase 10/300 GL in 20 mM HEPES pH 7.5, 100 mM NaCl, 5 mM DTT; co-migration; both purified
[4] = biological target: T4, murine Elp123 subcomplex, wild type (murine); assay: pull-down; mElp123WT immobilised on Dynabeads MyOne Streptavidin C1 via Twin-Strep-tagged Elp3, incubated with Elp456 variants 30 min at 4°C, washed 3 times (20 mM HEPES pH 7.5, 100 mM NaCl, 1 mM DTT, 0.05% Tween 20), eluted with 5 mM d-desthiobiotin; Coomassie; both purified
[5] = biological target: T3, human Elp6 (subunit of hElp456) (Homo sapiens); assay: SEC; three subunits co-expressed and purified as one complex (human, murine: Hi-5 cells, IgG agarose via Protein A on Elp6, TEV cleavage); gel filtration on Superose 6 Increase 10/300 GL by the legend (S200 Increase 10/300 GL by the methods), 20 mM HEPES pH 7.5, 100 mM NaCl, 2 mM MgCl2, 5 mM DTT; eluted at ~220 kDa; production of the yeast complex not told; both purified

Row | binding [3] | binding [4] | further results | Binder
1 | – | – | binding [1]: binds | B1
2 | – | – | binding [1]: binds | B2
3 | – | – | binding [2]: binds | B3
4 | binds | binds | – | B4
5 | – | – | binding [5]: binds | B5
6 | binds | binds | – | B6
7 | binds | binds | – | B7
8 | binds | binds | – | B8
9 | binds | binds | – | B9
